This note sets out measurements from the supplement of paper PMC10338343.

± gives the standard deviation. Only a part is listed here, and it is no random draw. The uncertainty is large for many entries.

One assay concerns MILI (PIWIL2) piRISC loaded with L1MC piRNA (26 nt). Kind of assay: pre-steady-state target cleavage rate (min^-1); MIWI and MILI are mouse PIWI proteins and EfPiwi is from a freshwater sponge; tags in brackets are library labels; higher = faster piRNA-guided slicing of the target. The following applies: guide: L1MC piRNA 5'p-UAACUAAAUACUAUGCAAGCUGUAGG; auxiliary factor: 500 nM mouse GTSF1. Here is the method:
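Cleave-'n-Seq: a library of target RNAs (target site embedded in constant flanks, ACAGCATTCCGCGTTAGTGATATCCG... 5' flank; DNA-blocked outside the site) at 0.1 nM was incubated with 1 nM active mouse MILI or MIWI piRISC (synthetic 5'-monophosphorylated piRNA guide) with or without 500 nM mouse GTSF1 at 33 °C for 1 min to 16 h. Uncleaved targets were sequenced and normalised to non-target controls, and the pooled three trials were fitted to a burst-and-steady-state model to give the pre-steady-state cleavage rate (min^-1; k3 is constrained to at most 1e-4). Sequence is the target site only; target names encode pairing extent (gX:gY) and contiguous / 1-mismatch / 2-mismatch / bulge geometry. Fits with R² ≤ 0 are excluded.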
Consider UCCUGGAUGUCGAACGUAUGUUUUUAGAUA, for which the “pre-steady-state target cleavage rate” value came out at 0.000118 ± 0.055.
The same measure, in the same setting: next, UCCUGGAUGUCGAAGCAUAGAUAUUUAGUUA: 0.00103 ± 0.0062; UCCUGGAACCAGCUUGCAUAGUAUUUAGUUA: 0.365 ± 0.032.
Same read-out and setting: in the case of UCCUCCUACAGCUUGCAUAGUAAUUACUUA it was 0.0937 ± 0.025; in that of UCCUGGUACAGCAAGCAUAGUAUUUACAAA, 0.0528 ± 0.019.
Still for that read-out and setting: next, UCCUGGAUGUCGAUGCCAUAGUAUUUAGUUA: 0.00491 ± 0.0034.
Regarding UCCUGGUUCAGCUUGCAUAGUAUUUAGUAA, the “pre-steady-state target cleavage rate” value worked out at 0.144 ± 0.028.
Same read-out and setting: in the case of UCCUGGAUGUGCUUGCAUAGAAUUUAGAAA it was 0.00144 ± 0.007; in that of UCCUGGAUGUCGUUGCAUAGUAUUUUGUAA, 0.00161 ± 0.0069; in that of UCCUGGUACAGCUUGCAUUGUAUUUACUUA, 0.05 ± 0.015.
Same read-out and setting: in the case of UCCUCCUACAGUUUGCAUAGUAUUUAGUUA it was 0.299 ± 0.013.
Still for that read-out and setting: in the case of UCCUGGAUGUCGAAGCAUUAGUAUUUAGUUA it was 0.0011 ± 0.0075; in that of UCCUGGAUCAGCUUGCAUAGUUAUUACAAA, 0.00236 ± 0.005.

The assay is the same for the next values; noted with them: guide: L1MC piRNA 5'p-UAACUAAAUACUAUGCAAGCUGUAGG; auxiliary factor: none (no GTSF1).
In the case of UCCUCCUACUGCUUGCAUAGUAUUUUCAAA, the “pre-steady-state target cleavage rate” value was 0.00108 ± 0.0041.
On to UCCUGGAUCAGCAAGCAUAGUAUUUUCAAA, for which the “pre-steady-state target cleavage rate” value is 0.00056 ± 0.0073.
With UCCUGGAUGUCGAAGCAUAGAUAUUUAGUUA, the “pre-steady-state target cleavage rate” value was found to be 0.000442 ± 0.011.
On the same count and under the same terms, next, UCCUCCUACAGCUUGGAUAGUAUUUUCAAA: 0.000682 ± 0.0074; UCCUGCUACAGCUUGCAUAGUAUUGAGUUA: 0.00178 ± 0.0041.
The same measure, in the same setting: next, UCCUCCUACAGCUUGCAUAGCAUUUAGUUA: 0.00232 ± 0.0026; UCCUCCUACAGCUUGCAUAGUAAUUACUUA: 0.00237 ± 0.0034; UCCUGGUACAGCAAGCAUAGUAUUUACAAA: 0.000737 ± 0.008.
In the case of UCCUCCUACAGCUUGCAUAGUUAUUUCAAA, the “pre-steady-state target cleavage rate” value turned out to be 0.0012 ± 0.0045.
On to UCCUGGAUGUCGAUGCCAUAGUAUUUAGUUA, for which the “pre-steady-state target cleavage rate” value worked out at 0.000595 ± 0.011.
In the case of UCCUGGUUCAGCUUGCAUAGUAUUUAGUAA, the “pre-steady-state target cleavage rate” value turned out to be 0.00573 ± 0.0029.
The same measure, in the same setting: in the case of UCCUGGAUGAGCUUGCAUAGAAUUUAGAUA it was 0.000544 ± 0.011; in that of UCCUGGAUGUGCUUGCAUAGAAUUUAGAAA, 0.00126 ± 0.0038.
The same measure, in the same setting: next, UCCUGGAUGUGCUUGCAUAGAUAUUAGUUA: 0.00104 ± 0.0067; UCCUCCUACAGCUUGCAUAGAUUUUAGUAA: 0.00123 ± 0.0046; UCCUGGAUGUCGUUGCAUAGUAUUUUGUAA: 0.000924 ± 0.008.
Same read-out and setting: next, UCCUGGAUGUCGAACGUUAGUAUUUGGUUA: 0.000119 ± 0.034.
Take UCCUGGAACAGCUUGCAUAGAAAUUAGUUA: the “pre-steady-state target cleavage rate” value is 0.00187 ± 0.0028.
On the same count and under the same terms, in the case of UCCUGCUACAGCUACGAUAGUAUUUACAAA it was 0.00017 ± 0.016; in that of UCCUGCUACUGCUUGCAUAGUAUUUUCAAA, 0.000932 ± 0.0054.
Turning to UCCUGGAUGUCCUUCCAUAGUAUUUACUUA, the “pre-steady-state target cleavage rate” value stood at 0.000127 ± 0.049.
Same read-out and setting: in the case of UCCUGGUACAGCUUGCAUUGUAUUUACUUA it was 0.00144 ± 0.0052.
With UCCUGGAUGUCGAUGCAAAGUAUUAAGUUA, the “pre-steady-state target cleavage rate” value was determined as 0.000591 ± 0.011.
The same measure, in the same setting: in the case of UCCUGGAUGUCGAAGCAUUAGUAUUUAGUUA it was 0.000238 ± 0.01; in that of UCCUGGUACAGCUUCCAUAGUAUUUUCAAA, 0.00119 ± 0.0067.
The same measure, in the same setting: next, UCCUGGAUCAGCUUGCAUAGUUAUUACAAA: 0.00118 ± 0.0042.
